# Source: PubChem BioAssay AID504467 (National Center for Advancing Translational Sciences (NCATS), 2011)
# Hit rate of the full screen: of about 330,000 compounds, about 7,700 (2.3%) were called active. Inconclusive results, whose numbers are uncertain, are shown with a selection of clear calls. Calls come from the whole dose curve; as a rule, active = well fitted inhibition curve with a large enough effect; inconclusive = small, poorly fitted or top-dose-only effect, or effect the other way; inactive = flat fitted curve, though single readings scatter. Where the call is inconclusive, the potency comes from a doubtful curve fit.
# Assay: qHTS screen for small molecules that inhibit ELG1-dependent DNA repair in human embryonic kidney (HEK293T) cells expressing luciferase-tagged ELG1; note: nearly all actives have a fitted effect of over 55% in size
# Settings: HEK293T ELG1-luciferase reporter, luminescence, 16 h, DNA damage induced by 5-fluorouridine; series mostly up to 46.1 µM
# In short: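 Overnight (16 hr) co-exposure of 2,000 cells/well to 5-fluorouridine and compound at 37 °C preceded detection. Luciferase was quantified via ONE-Glo luminescence; loss of signal denotes inhibition.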
# Potency is the fitted concentration of half-maximal effect.
row,Structure (SMILES),Potency
1,O=C(COC(=O)c1cc([N+](=O)[O-])ccc1N1CCOCC1)Nc1c(Cl)cccc1Cl,"inconclusive: 5.17 µM [inhibitor, single point]"
2,Cc1cc(C)c(S(=O)(=O)Nc2nccs2)c(C)c1,inactive
3,COC(=O)C(Cc1c[nH]c2ccccc12)NC(=O)c1cc(-c2ccc(OC)c(OC)c2)oc1C (stereo not drawn),"inconclusive: 29.1 µM [inhibitor, single point]"
4,FC(F)(F)c1ccc(CN2C[C@@H]3C(c4ccc(C(F)(F)F)cc4)C4(c5cccnc5)CC3(C4)[C@H]2c2ccccc2)cc1 (stereo partly drawn),inactive
5,CCc1ccnc(NC(=O)NS(=O)(=O)c2ccc(C)cc2)c1,"inconclusive: 29.1 µM [activator, single point]"
6,Cc1ccccc1NC(=S)NCc1cccn1C,inactive
7,CCOc1ccc(Oc2c(/C=N/NC(N)=O)c(C)nn2-c2ccccc2)cc1,"inconclusive: 29.1 µM [inhibitor, single point]"
8,COC(=O)Cc1c(OC)ccn(CCc2c[nH]c3ccccc23)c1=O,"inconclusive: 20.6 µM [activator, partial curve]"
9,Cc1cc(Nc2nc3c(c(=O)n(C)c(=O)n3C)n2C)n(-c2ccc(Cl)cc2)n1,"inconclusive: 16.4 µM [inhibitor, partial curve, poor fit]"
10,O=C(CCN1C(=O)/C(=C\c2cccs2)SC1=S)Nc1ccc(C(=O)O)cc1,inactive
11,CN(C)CCCNc1ccc(-c2cc(Nc3cccc(Cl)c3)ncn2)cn1,"inconclusive: 23.1 µM [activator, single point]"
12,C=CCN=Cc1c(C)[nH]n(-c2ccccc2)c1=O,"inconclusive: 23.1 µM [activator, partial curve]"
13,CCOc1cc(/C=C2/C(=N)N3C(=NC2=O)SN=C3S(C)(=O)=O)ccc1OC(=O)c1ccco1,inactive
14,CNC(=O)c1c(NC(=O)c2ccc(S(=O)(=O)N3CCCCC3C)cc2)sc2c1CCN(C)C2 (stereo not drawn),"inconclusive: 8.2 µM [inhibitor, single point]"
15,Cc1cc(NC(=O)c2ccc(Br)c(S(=O)(=O)N3CCCC3)c2)no1,"inconclusive: 16.4 µM [inhibitor, single point]"
16,CCOC(=O)CCCNC(=O)CSc1nnc(-c2ccccc2)c(-c2ccccc2)n1,"inconclusive: 36.6 µM [inhibitor, partial curve, poor fit]"
17,COc1cc(OC)c(NC(=O)C2CCN(S(=O)(=O)c3ccc4c(c3)CC(C)N4C(C)=O)CC2)cc1Cl (stereo not drawn),inactive
18,O=C(COC(=O)C1Cc2ccccc2CN1C(=O)c1ccccc1Cl)Nc1ccc(N2CCOCC2)cc1 (stereo not drawn),"inconclusive: 36.6 µM [inhibitor, partial curve, poor fit]"
19,NC(=S)NNc1c(F)c(F)c(F)c(F)c1F,inactive
20,Cc1cc2oc(C(=O)NCc3ccc(S(N)(=O)=O)cc3)c(C)c2cc1C,"inconclusive: 5.17 µM [inhibitor, single point]"
21,COc1ccc(Cl)cc1NC(=O)CN1CCC(n2nnc3cc(C)ccc32)CC1,active: 20.6 µM
22,Cc1cccc(-c2nc(-c3ccncc3)no2)c1,"inconclusive: 5.8 µM [activator, partial curve]"
23,CC(C)Cc1nc2oc3c(Cl)ncnc3c2c2c1CCC2,"inconclusive: 29.1 µM [inhibitor, single point]"

row,Structure (SMILES),Potency
1,CC(C)OC(=O)CC(=O)CSc1nc2c(cc1C#N)CCC2,"inconclusive: 16.4 µM [activator, partial curve, poor fit]"
2,O=C1c2ccccc2C(=O)N1CCC#Cc1ccc2cc(CCCO)oc(=O)c2c1,"inconclusive: 18.3 µM [activator, partial curve, poor fit]"
3,CC(=O)Nc1ccc(S(=O)(=O)N/N=C/c2cccnc2)cc1,inactive
4,Cc1ccc(C(=O)NC(Cc2cccc(C(F)(F)F)c2)C(=O)O)cc1 (stereo not drawn),"inconclusive: 16.4 µM [activator, partial curve, poor fit]"
5,CNc1nc(N/N=C/c2ccc([N+](=O)[O-])cc2)nc(Nc2ccccc2)n1,"inconclusive: 13 µM [inhibitor, partial curve]"
6,CSc1ccc(/C=C/C(=O)c2c(O)cc(C)oc2=O)cc1,"inconclusive: 29.1 µM [activator, single point]"
7,CCOC(=O)c1[nH]c(C)c(C(=O)Nc2cc(OC)ccc2OC)c1C,"inconclusive: 1.03 µM [inhibitor, partial curve, poor fit]"
8,CC(C)c1cc(C(=O)Nc2cccc(Cl)c2)no1,"inconclusive: 1.64 µM [activator, full curve]"
9,COC(=O)c1ccc(N/C=C/C(=O)c2ccccc2)cc1,"inconclusive: 2.06 µM [activator, full curve]"
10,N#Cc1ccc(C23CC4(C2)[C@H](CN(P(=O)(c2ccccc2)c2ccccc2)[C@@H]4c2ccccc2)C3c2ccc(Cl)nc2)cc1 (stereo partly drawn),"inconclusive: 20.6 µM [inhibitor, partial curve, poor fit]"
11,COC(=O)c1cc(=O)n(CCc2ccc(OC)c(OC)c2)c(=Nc2ccc(F)c(Cl)c2)s1,active: 14.6 µM
12,COc1ccc(CNC(=O)/C=C/c2cc([N+](=O)[O-])ccc2OC(F)F)cc1OC,active: 20.6 µM
13,Cc1ccc(C(=O)c2ccccc2C(=O)OCC(=O)Nc2cccc([N+](=O)[O-])c2)cc1,"inconclusive: 20.6 µM [inhibitor, partial curve, poor fit]"
14,CCOc1ccc(/C=C2/Sc3ccc(C(=O)NCC4CCCO4)cc3N(C)C2=O)cc1OC (stereo not drawn),active: 18.3 µM
15,CC(=O)NCCC(=O)Nc1nc2c(ccc3ccccc32)s1,"inconclusive: 20.6 µM [activator, single point]"
16,O=C(O)c1ccc(CSc2nnc(-c3ccccc3Br)o2)cc1,inactive
17,O=C(/C=N/O)Nc1ccc2sc3ccccc3c2c1,inactive
18,CNC(=O)c1[nH]cnc1C(=O)Nc1ccc(C)cc1,"inconclusive: 13 µM [activator, partial curve]"
19,Cc1cc(C(=O)Nc2nnc(C(F)(F)F)s2)no1,"inconclusive: 29.1 µM [activator, single point]"
20,Cc1sc(NC(=S)NC(=O)c2ccco2)c(C#N)c1C,"inconclusive: 16.4 µM [activator, partial curve]"
21,O=C1CC(SCCO)C(=O)N1c1ccc(Oc2ccccc2)cc1 (stereo not drawn),inactive
22,CCOC(=O)c1nn(-c2ccc3c(c2)OCO3)cc1O,"inconclusive: 10.3 µM [activator, partial curve]"
23,COc1ccc(C)cc1NC(=O)c1ccccc1NS(=O)(=O)c1ccc(Cl)s1,"inconclusive: 3.26 µM [inhibitor, full curve]"

row,Structure (SMILES),Potency
1,Cc1ccccc1C(=O)O/N=C(\N)c1ccc([N+](=O)[O-])cc1,"inconclusive: 20 µM [activator, partial curve, poor fit]"
2,CC(C)Oc1ccc(S(=O)(=O)N2CCOCC2)cc1NC(=O)C1=NN(c2ccccc2)C(=O)CC1,active: 10.3 µM
3,CCOC(=O)c1ccc(NC(=O)C2CC(O)CN2S(=O)(=O)c2ccc(C)cc2)cc1 (stereo not drawn),"inconclusive: 29.1 µM [inhibitor, single point]"
4,Cc1ccc(C(=O)N/N=C/c2ccoc2)cc1C,"inconclusive: 13 µM [activator, partial curve]"
5,O=C(NC(=S)Nc1ccc(F)c([N+](=O)[O-])c1)c1ccccc1F,"inconclusive: 29.1 µM [activator, single point]"
6,c1ccc2c(-c3c[nH]c4ccccc34)c3ccccc3nc2c1,"inconclusive: 29.1 µM [inhibitor, single point]"
7,CCOC(=O)N1CCC(N(CCOC)C(=O)Nc2ccc(Cl)c(Cl)c2)CC1,"inconclusive: 29.1 µM [inhibitor, single point]"
8,CCc1cc2c(=O)c(-c3nc(C)cs3)coc2cc1O,"inconclusive: 7.3 µM [activator, partial curve]"
9,O=c1nc2c(-c3ccccc3F)n[nH]n2c2ccccc12,"inconclusive: 18.4 µM [activator, partial curve]"
10,S=C(Nc1ccc(Br)cc1)NC1CCCC1,"inconclusive: 13 µM [activator, partial curve]"
11,O=C(c1cc(=O)c2ccccc2o1)N1CCN(c2ccccc2)CC1,inactive
12,CN1/C(=C/C2CC(=O)NC2=O)C(C)(C)c2ccccc21 (stereo not drawn),inactive
13,Cc1ccccc1OCCn1c(=O)sc2ccccc21,"inconclusive: 23.1 µM [activator, partial curve, poor fit]"
14,Cc1ccc(COC(=O)NCc2cccnc2)cc1,inactive
15,CC1(C)Cc2c(c(N3CCOCC3)nc3sc(C(=O)N4CCCCC4)c(N)c23)CO1,active: 0.206 µM
16,COc1ccccc1N(CN1CCCC1=O)C(=O)c1c(F)cccc1Cl,inactive
17,CCOC(=O)c1snc2c(=O)[nH]cnc12,inactive
18,COc1cccc(NC(=O)CSCC(=O)Nc2ccccc2)c1,"inconclusive: 20.6 µM [activator, single point]"
19,NC(=O)[C@H]1CC2(CC(c3cccc(NC(=O)CC(c4ccccc4)c4ccccc4)c3)=NO2)CN1C(=O)CC(c1ccccc1)c1ccccc1 (stereo partly drawn),inactive
20,O=C(NCC(=O)N1CCN(C(c2ccccc2)c2ccccc2)CC1)c1ccc(Br)o1,"inconclusive: 18.3 µM [inhibitor, partial curve]"
21,O=C(Nc1ccc(F)cc1)C1CCN(c2ncnc3c2nc2n3CCCCC2)CC1,"inconclusive: 11.6 µM [inhibitor, partial curve]"
22,O=C(N/N=C/C(Br)=C/c1ccccc1)c1ccncc1,"inconclusive: 18.3 µM [activator, partial curve]"
